These are yes or no findings as the source states them, for the method shown. Binding seen in cells or lysates may run through a third protein. Some results given as binding are weak or reduced against the parent protein; the word gives no strength. Sequences can lack the tags named with a protein.
Molecular target: T1, full-length mEmerald tagged Plin5 (perilipin 5) (UniProt Q8BVZ1)
T1 sequence: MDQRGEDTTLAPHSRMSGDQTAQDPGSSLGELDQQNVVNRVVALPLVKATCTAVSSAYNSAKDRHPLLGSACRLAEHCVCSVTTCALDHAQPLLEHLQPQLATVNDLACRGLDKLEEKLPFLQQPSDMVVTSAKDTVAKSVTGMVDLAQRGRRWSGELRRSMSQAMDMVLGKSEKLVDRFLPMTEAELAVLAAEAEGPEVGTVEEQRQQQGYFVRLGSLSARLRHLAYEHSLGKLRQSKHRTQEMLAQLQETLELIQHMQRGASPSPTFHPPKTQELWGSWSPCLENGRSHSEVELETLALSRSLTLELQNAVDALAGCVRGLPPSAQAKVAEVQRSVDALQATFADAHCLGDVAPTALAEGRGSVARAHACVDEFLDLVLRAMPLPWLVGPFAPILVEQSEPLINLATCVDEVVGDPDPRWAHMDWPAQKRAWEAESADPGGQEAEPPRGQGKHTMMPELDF
Assay: co-IP

The chains behind the UniProt entries cited, without tags or fusion partners.
UniProt Q6P1M0: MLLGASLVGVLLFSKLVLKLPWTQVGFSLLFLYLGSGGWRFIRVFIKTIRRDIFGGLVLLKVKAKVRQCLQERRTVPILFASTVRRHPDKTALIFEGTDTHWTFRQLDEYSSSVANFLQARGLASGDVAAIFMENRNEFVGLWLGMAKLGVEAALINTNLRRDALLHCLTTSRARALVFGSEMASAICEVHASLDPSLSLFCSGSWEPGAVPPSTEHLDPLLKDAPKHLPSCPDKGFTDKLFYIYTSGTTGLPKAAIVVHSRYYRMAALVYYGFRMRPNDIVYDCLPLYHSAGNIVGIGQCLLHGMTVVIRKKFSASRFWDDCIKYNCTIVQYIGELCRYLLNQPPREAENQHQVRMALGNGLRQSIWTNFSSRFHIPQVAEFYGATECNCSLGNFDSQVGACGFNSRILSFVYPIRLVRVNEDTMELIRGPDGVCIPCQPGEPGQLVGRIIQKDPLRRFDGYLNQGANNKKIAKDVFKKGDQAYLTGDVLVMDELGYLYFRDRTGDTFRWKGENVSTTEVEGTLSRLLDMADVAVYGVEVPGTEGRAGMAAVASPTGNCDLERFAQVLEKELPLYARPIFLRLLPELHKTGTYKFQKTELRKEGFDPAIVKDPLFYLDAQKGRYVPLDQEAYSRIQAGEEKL

Fatp4 (ACSVL4), acyl-CoA synthetase (from UniProt Q6P1M0 1-643) (enzyme)
binding: binds

Reference: article doi:10.1101/2022.02.03.479028
